Some of these results come from one statement about several compounds together.
Assay: Solubility of probes 1-4 in methanol and PBS
Format: physicochemical
Conditions: PBS
From the text: The synthesis of analogs 2-4 followed a similar route: reaction of 5 with chloroethylamine followed by deprotection of the 6-hydroxy group produced 2; 3 and 4 resulted from reaction of 5 with bromoethanol and bromopropylbenzene respectively. In all cases the N-linked isomer was isolated.

Solubility in phosphate-buffered saline, easily dissolved:
NCCn1c(=O)cc(C(F)(F)F)c2ccc(O)cc21 [Compound 1]
CN(C)CCn1c(=O)cc(C(F)(F)F)c2ccc(O)cc21 [Compound 2]
O=c1cc(C(F)(F)F)c2ccc(O)cc2n1CCO [Compound 3]

Reference: patent US20120294808A1, “Fluorescent Analogs of Neurotransmitters, Compositions Containing the Same and Methods of Using the Same” (UNIVERSITY OF MIAMI, priority 2009, published 2012)
